Test results: PMC4947154
These are yes or no findings as the source states them, for the method shown. Binding calls can cover weak binding; strength is not graded here. For some of these results: In cells and extracts the contact can be indirect.

Amino acid sequences for entries named in this document (tags omitted). A change or cut given only in a name is not applied to a line headed by its entry.
UniProt Q9NPF0: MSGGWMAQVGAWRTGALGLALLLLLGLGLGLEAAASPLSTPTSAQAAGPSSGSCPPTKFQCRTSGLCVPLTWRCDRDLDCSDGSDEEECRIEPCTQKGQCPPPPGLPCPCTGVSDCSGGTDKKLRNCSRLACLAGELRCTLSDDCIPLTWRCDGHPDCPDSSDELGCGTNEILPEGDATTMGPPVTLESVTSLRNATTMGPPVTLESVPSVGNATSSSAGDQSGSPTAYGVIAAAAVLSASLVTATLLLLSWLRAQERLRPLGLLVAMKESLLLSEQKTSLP

Legend:
[1] = biological target: CD320ΔE88 (MBP cleaved), in complex with TC (human) (UniProt Q9NPF0); assay: crystal structure; co-crystals of the purified complex, sitting drop, 20 °C; both purified
[2] = biological target: CD320(Gly4Ser)4 (flexible linker mutant: EGF-like domain replaced by (Gly4Ser)4) (human) (UniProt Q9NPF0); assay: co-expression and co-purification; TC construct and His9-MBP-CD320 construct co-expressed and secreted from Sf21 cells, complex captured from the medium on Ni-NTA through the receptor's tag
[3] = biological target: CD320(Gly4Ser)4 (flexible linker mutant: EGF-like domain replaced by (Gly4Ser)4) (human) (UniProt Q9NPF0); assay: SEC; purified complexes, 0.5-1 mg/ml in 20 mM Tris pH 7.5, 0.5 mM CaCl2, 150 mM NaCl, G3000SWxl column at 4 °C, after heating for 10 min at selected temperatures (thermostability; also with 10 mM EGTA without Ca2+); SEC profiles of purified complexes; both purified
[4] = biological target: CD320ΔE88 (MBP cleaved), in complex with TC (human) (UniProt Q9NPF0); assay: as above

Measured: binding

B1: human transcobalamin (holo-TC, cyanocobalamin-bound) (protein, UniProt P20062 19-427)
chain: EMCEIPEMDSHLVEKLGQHLLPWMDRLSLEHLNPSIYVGLRLSSLQAGTKEDLYLHSLKLGYQQCLLGSAFSEDDGDCQGKPSMGQLALYLLALRANCEFVRGHKGDRLVSQLKWFLEDEKRAIGHDHKGHPHTSYYQYGLGILALCLHQKRVHDSVVDKLLYAVEPFHQGHHSVDTAAMAGLAFTCLKRSNFNPGRRQRITMAIRTVQEEILKAQTPEGHFGNVYSTPLALQFLMTSPMRGAELGTACLKARVALLASLQDGAFQNALMISQLLPVLNHKTYIDLIFPDCLAPRVMLEPAAETIPQTQEIISVTLQVLSLLPPYRQSISVLAGSTVEDVLKKAHELGGFTYETQASLSGPYLTSVMGKAAGEREFWQLLRDPNTPLLQGIADYRPKDGETIELRLVSW
binds: [1] | [2] | [3] | [4]
